# Measurements: patent publication US20250368734A1
# No constants are given. Whether binding was seen depends on the method and setting. Binding calls can cover weak binding; strength is not graded here.
# Biological target: cynomolgus monkey GPRC5D (cynomolgus monkey)
# Assay: FACS, HEK293T-cynoGPRC5D cells
row,Binder,binding
1,"ch12G12C2 (antibody, V domains shown) VH: QIQLVQSGPELKMPGETVKISCKASGYTFTTYGLSWVKQAPGKGLKWMGWINTFSGVPIYADDFKGRFAFSLETSASTAYLQINNLKNEDTATYFCARWGIRQRGDYWGQGATLTVSS VL: QIVLTQSPAIMSASPGEKVTMTCSASSSVSYLHWYQQKSGTSPKRWIYDTSKLASGVPVRFSGSGSETSYSLTISSMEAEDAATYYCQQWTSNPPTFGGGTKLEIK",binds
2,"ch26E2H6 (antibody, V domains shown) VH: EVQLVESGGDLVKPGGSLKLSCAASGFTFSSYGMSWVRQTPDKRLEWVATISSGGSYTYYPDSVKGRFTISRDNAKNTLYLQMSSLKSEDTAMYYCARHATDYWGQGTTLTVSS VL: QIVLTQSPAIMSASPGEKVTMTCSASSSVSYMHWYQQKSGTSPKRWIYDTSKLASGVPARFSGSGSGTSYSLTISSMEAEDAATYYCQQWSSNPLTFGAGTKLELK",binds
3,"ch90G6H3 (antibody, V domains shown) VH: QAYLQQSGAELVRSGASVKMSCKASGYTFTSYIMHWVKQTPGQGLEWIGYIYPGNGGTNYNQKFKDKATLSADTSSSTAYMQINSLTSEDSAVYFCARWGLRQGFAYWGQGTLVSVSA VL: DIVMTQSQKFMSTSVGDRVSVTCKASQNVGGNVAWYQQKPGQSPKALIYSTSYRNSGVPDRFTGSGSGTDFTLTISNVQSEDLAEYFCQQYNSYPFTFGSGTKLEIR",binds
4,"ch87A3G8 (antibody, V domains shown) VH: QVQLKESGPGLVAPSQSLSITCTVSGFSLSSYSVYWVRQPPGKGLEWLGVIWAGGSTNYNSALMSRLSINKDKSKSQVFLKMNSLQTDDSAIYYCAMRWLPRGLDFWGQGTSVTVSS VL: DIVMTQSHKFMSTSVGDRVSITCKASQDVGTAVAWYQQKPGQSPKLLIYWASTRHTGVPDRFTGSGSGTDFTLTISNVQSEDLADYFCQQYSTYYTFGGGTKLEIK",binds
5,"ch15D6G2 (antibody, V domains shown) VH: EVQLVESGGDLVKPGGYLRLSCAASGFTFSSHGMSWVRQTPDKRLEWVATISSGGRNTYYPDSVKGRFTISRDNAKNILYLQMSSLKSEDTAMFYCTRHSGDAMDYWGQGTSVTVSS VL: DILLTQSPAILSVSPGERVSFSCRASQSIGTNIHWYQQRTNGSPRLLIKYASESISGIPSRFSGSGSGTDFTLSINSVESEDIADYYCQQSKSWPTFGGGTKLEIK",binds
6,"ch20C4E1 (antibody, V domains shown) VH: EVRLVESGGALVRPGGSLKLSCAASGFTFSDYGMHWVRQAPEKGLEWIAFISSVSFTIYYADTVKGRFTISRDNAKNTLFLQMTSLRSEDTALYYCTRLGPHWYFDVWGTGTTVTVSS VL: DVVLTQTPLSLPVSLGDQASISCRSSQSLVYSNGNTYLHWFLQKPGQSPQLLIYKVSNRFSGVPDRFSGSGSGTDFTLKISRVEAEDLGVYFCSQSTPVPTFGGGTKLEIK",binds
7,"ch98A3A8 (antibody, V domains shown) VH: EVQLQQSGPELVKPGASVKMSCKASGYTFTYYVTHWVRQKPGQGLEWIGYINPYNDGTMFNEKFKGKATLTSDKSSSTAYMEFSSLTSEDSAVFYCARGGVRRYFDVWGAGTTVTVSS VL: DIQMTQSPSSLSASLGERVSLTCRASQDIGSNLNWLQQKPDGTIKRLIYATSSLDSGVPKRFSGSRSGSDYSLTINSLESEDFVDYYCLQYASFPYTFGGGTKLEIK",binds
8,"ch101B3G3 (antibody, V domains shown) VH: EVQLQQSGPELVKPGASMKISCKASGYSFTGYTMNWVKQSHGKNLEWIGLINPYNGGTRYNQKFKDKATLTVDKSSSTAYMELLSLTSEDSAVYYCARWLLRYAMDYWGQGTSVTVSS VL: DIVMTQSQKFMSTSVGDRVSITCKASQNVGNAVAWYQQKPGHSPKLLISSASNRKNGVPDRFTGSGSGTDFTLTVSNMQSEDLADYFCQQYSDSSWTFGGGTKLEIK",binds
9,"ch28H9C12 (antibody, V domains shown) VH: EVQLVESGGGLVKPGGSLKLSCAASGFTFSDYGMHWVRQAPEKGLEWVAYISSGSSTIYYADTVKGRFTISRDNAKNTLFLQMTSLRSEDTAIYYCVRRPWYFDVWGTGTTVTVSS VL: DVLMTQTPLSLPVSLGDQASISCRSSQSIVHSNGNTYLQWYLQKPGQSPKLLIYKVSNRFSGVPDRFSGSGSGTDFTLKISRLEAEDLGVYYCFQGSHVPFTFGSGTKLEIK",binds

# The next lines start with the values.
row,binding,Binder
1,binds,"ch89F11E3 (antibody, V domains shown) VH: QVQLQQSGAELARPGASVKMSCKASGYTFTSSTIHWVKQRPGQGLAWIGYIVPSTGYTNYNQKFKDKATLTADKSSSTAYMQLTSLTSEDSAVYYCARSDGYPFGYSMAYWGQGTSVTVSS VL: DIQMNQSPSSLSASLGDTITITCHASQNINVWLSWYHQKPGNIPKLLIYKASNLHTGVPSRFSGSGSGTGFTLTISRLQPEDIATYYCQQGQSYPFTFGSGTKLEIK"
2,binds,"ch96C9E7 (antibody, V domains shown) VH: EVQLQQSGPELVKPGASVKMSCKASGYTFTYYILHWVKQKPGQGLEWIGYFNPYNDGNKFNERFRGKATLTSDKSSSTAYMELNSLTSEDSAVYFCARGGVRRYFDVWGAGTTVTVSS VL: DIQMTQSPSSLSASLGERVSLTCRASQDIGSNLNWLQQEPDGTIKRLISATFSLDSGVPKRFSGSRSGSDYSLTISSLESEDFVNYYCLQYASFPYTFGGGTKLEIK"
3,binds,"ch110B4H5 (antibody, V domains shown) VH: EVQLQQSGPELVKPGASVKMSCKASGYTFTFYIMHWVKQKPGQGPEWIGYINPYNDGTKYNAKFKGKATLSSDRSSSTAYMELSSLTSEDSAVYYCARGGVRRYFDVWGAGTPVTVSS VL: DIQMTQSPSSLSASLGERVSLTCRSSQDIGSNLNWLQQEPDGTIKRLIYATFSLDSGVPKRFSGSRSGSHYSLTISSLESEDFVVYYCLQYGSFPYTFGGGTKLEIK"
4,binds,"ch108C4C12 (antibody, V domains shown) VH: EVQLQQSGPELVKPGASVKMSCKASGYTFTSYVIHWVKQKTGQGLEWIGYFNPYNDGTKYNEEFKGKATLTSDKSSNTAYMELNSLTSDDSAVYFCARGGVRRYFDVWGAGTTVTVSS VL: DIQMTQSPSSLSASLGERVSLTCRASQDIGSNLNWLQQEPDGTIKRLIYATFGLDSGVPKRFSGSRSGSDYSLTISSLESEDFVDYYCQQYASFPYTFGGGTKLEIK"
